Reference: patent publication US20090111753A1, “Nogo-A Polypeptide Fragments, Variant Nogo Receptor-1 Polypeptides, and Uses Thereof” (Yale University, priority 2004, published 2009)
Substitutions are numbered along the chain they refer to. Names and notes keep the numbering of the source. Results are given in words; binding and its absence hold for the method and conditions named. Some entries that bind do so weakly or less than the wild type.

How the values were obtained:
Assay in all cases: AP-ligand binding, COS-7
[1] = biological target: T1, human NgR1 alanine mutant 114, 117, 139 (human) (UniProt Q9BZR6)
T1 sequence: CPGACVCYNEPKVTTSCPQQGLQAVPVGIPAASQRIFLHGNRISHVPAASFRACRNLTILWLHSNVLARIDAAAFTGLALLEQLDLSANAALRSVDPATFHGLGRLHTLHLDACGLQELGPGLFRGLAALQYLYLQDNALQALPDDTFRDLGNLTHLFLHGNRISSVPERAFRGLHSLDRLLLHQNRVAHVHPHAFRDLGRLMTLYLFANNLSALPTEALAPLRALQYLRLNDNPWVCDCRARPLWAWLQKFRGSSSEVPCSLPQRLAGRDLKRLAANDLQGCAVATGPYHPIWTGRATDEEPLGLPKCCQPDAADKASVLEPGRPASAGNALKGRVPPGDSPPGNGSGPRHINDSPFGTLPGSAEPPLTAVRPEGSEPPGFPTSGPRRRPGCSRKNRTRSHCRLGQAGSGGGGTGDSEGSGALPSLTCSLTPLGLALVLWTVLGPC

[2] = biological target: T2, human NgR1 alanine mutant 216, 218, 220 (human) (UniProt Q9BZR6)
T2 sequence: T1 sequence with A88D, A91Q, A113R, H190A, H192A, H194A

[3] = biological target: T3, human NgR1 alanine mutant 63, 65 (human) (UniProt Q9BZR6)
T3 sequence: T1 sequence with F37A, H39A, A88D, A91Q, A113R

[4] = biological target: T4, human NgR1 alanine mutant 237, 256, 284 (human) (UniProt Q9BZR6)
T4 sequence: T1 sequence with A88D, A91Q, A113R, N211A, R230A, E258A

[5] = biological target: T5, human NgR1 alanine mutant 95, 97 (human) (UniProt Q9BZR6)
T5 sequence: T1 sequence with R69A, D71A, A88D, A91Q, A113R

[6] = biological target: T6, human NgR1 alanine mutant 61 (human) (UniProt Q9BZR6)
T6 sequence: T1 sequence with R35A, A88D, A91Q, A113R

Measured: binding

B1: AP-fused Amino-Nogo fragment B4C (a.a. 950-1018) (ligand)
chain: LLPPDVSALATQAEIESIVKPKVLVKEAEKKLPSDTEKEDRSPSAIFSAELSKTSVVDLLYWRDIKKTG
notes: also called AmNg B4C; AP-B4C; not shown: alkaline phosphatase (AP), vector pcAP6
binds: all assays above

B2: AP-Nogo-66 (ligand, UniProt Q9NQC3 1055-1120, looked up)
chain: RIYKGVIQAIQKSDEGHPFRAYLESEVAISEELVQKYSNSALGHVNCTIKELRRLFLVDDLVDSLK
notes: domain: Nogo-66; construct described elsewhere (Fournier 2001); also called AP-Ng66; Ng66; not shown: alkaline phosphatase (AP); construct described elsewhere
binds: all assays above
